{"source": "patent US20240344040A1", "about": "“PROKARYOTIC AND EUKARYOTIC CELLS WITH BIOSYNTHESIZED SULFOTYROSINE FOR GENETIC INCORPORATION” (William Marsh Rice University, priority 2023, published 2024)", "tested_on": "ΔcysH BW25113 cells", "assay": "E. coli intracellular sulfotyrosine concentration measurement (LC-MS)", "format": "cell-based, Escherichia coli", "data": [{"smiles": "O=C(O)[C@H](Cc1ccc(O)cc1)NS(=O)(=O)O", "note": "[sulfotyrosine]", "values": [{"measurement": "cellular concentration of sulfotyrosine, fold higher than cells exogenously fed with 1 mM sulfotyrosine", "setting": "biosynthetic pathway vs 1 mM exogenous feeding", "result": 28, "unit": "fold"}, {"measurement": "cellular concentration of sulfotyrosine", "setting": "cells endowed with the sulfotyrosine biosynthetic pathway, no exogenous feeding", "result": 756.3, "unit": "µM"}]}]}
